In general, Kd refers to the free concentration of one partner at which half of the binding sites on the other are occupied at equilibrium, for simple one-to-one binding.

The target in data set [1] is T1, FUS (Homo sapiens) (UniProt P35637).
T1 sequence: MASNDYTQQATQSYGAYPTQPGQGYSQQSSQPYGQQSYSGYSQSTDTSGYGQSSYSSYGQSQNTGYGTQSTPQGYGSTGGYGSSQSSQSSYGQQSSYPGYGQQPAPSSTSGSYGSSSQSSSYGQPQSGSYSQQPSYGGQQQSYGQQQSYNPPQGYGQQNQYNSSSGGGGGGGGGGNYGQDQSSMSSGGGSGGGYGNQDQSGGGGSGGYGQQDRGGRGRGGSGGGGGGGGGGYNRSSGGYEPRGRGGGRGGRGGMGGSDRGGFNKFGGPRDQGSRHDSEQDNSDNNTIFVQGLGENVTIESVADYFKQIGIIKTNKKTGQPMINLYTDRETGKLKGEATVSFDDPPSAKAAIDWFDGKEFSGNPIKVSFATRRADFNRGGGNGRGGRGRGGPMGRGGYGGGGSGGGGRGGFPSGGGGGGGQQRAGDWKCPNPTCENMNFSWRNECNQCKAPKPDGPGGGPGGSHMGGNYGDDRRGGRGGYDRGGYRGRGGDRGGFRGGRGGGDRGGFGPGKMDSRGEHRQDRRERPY
Put plainly: inhibition of the protein. The settings on record: purified recombinant protein.

Data set [2] deals with T2, FUS 4FL F305L,F341L,F359L,F368L (Homo sapiens) (UniProt P35637).
T2 sequence: T1 sequence with F305L, F341L, F359L, F368L
Put plainly: inhibition of the protein. The settings on record: purified recombinant protein.

In data set [3] the target is optoTDP43 (Cry2olig-TDP-43-mCherry) (Homo sapiens) (UniProt Q13148). Put plainly: activity in cells. The conditions noted are these: protein in cells, protein details: N-terminal Cry2olig, C-terminal mCherry.
The target in data set [4] is T3, optoFUS (Cry2-mCh-FUS) (Homo sapiens) (UniProt P35637).
T3 sequence: T1 sequence
Briefly: activity in cells. The settings on record: protein in cells, protein details: N-terminal Cry2-mCherry fusion, HEK293 cells.

For data set [5], the target named is TDP-43 RRMs (Homo sapiens) (UniProt Q13148). Put plainly: binding assay. The settings on record: [none]; CITED Ayala 2011, Bhardwaj 2013; SEQ 13 is the 2'OMe form; letters built from the parent sequence and the stated change.
Where [6] appears, read: strong aggregation inhibitor, 5 uM FUS, 20 uM RNA.
Setting [7] is: intermediate aggregation inhibitor, 5 uM FUS, 20 uM RNA.

Substitutions are numbered along the chain they refer to. For some of these results: A negative result means that nothing was seen under these conditions. For some of these results: Protein sequences can lack the tags named with them. For some of these results: A weaker result is weaker than the reference pair of the same experiment. For some of these results: The exact form of at least one protein or probe is not confirmed.

For the sequence “AAAAAAAAAAAAAAAAAAAAAAAAAGUGAAGGCAGAGAGGGGUUAAGG [RNA26]”, in data set [1] (setting [6]), the functional effect result is “active”.

Consider AAACGGUCUGAUAAACGGUCUGAU [RNA14], for which, in data set [1] (setting [7]), the functional effect result was “active”.

As to AAAGCGGCGAUGAAAGCGGCGAUG [RNA29], the functional effect entry in data set [1] (setting [7]) was “active”.

Regarding “AACCUUCGUAAACCUUCGUAAACCUUCGUAAACCUUCGUA [RNA27]”, the functional effect result in data set [1] (setting [7]) is “active”.

Regarding “ACCAUGAUCACGAAGGUGGUUUUCCCAGGGCGAGGCUUA [RNA31]”, the results for the functional effect entry in data set [1] (setting [6]) and in data set [2] were “active” and “not active”, respectively.

For the sequence “AUGUCGCAGAAUGUCGCAGAAUGUCGCAGAAUGUCGCAGA [RNA17]”, in data set [1] (setting [7]), the functional effect entry is “active”.

For the sequence “AUUGAGGAGCAGCAGAGAAGUUGGAAAAAAAAAAAAAAAAAAAAAAAA [RNA25]”, the functional effect entry in data set [1] (setting [6]) is “active”.

Consider “AUUGAGGAGCAGCAGAGAAGUUGGAGUGAAGGCAGAGAGGGGUUAAGG [RNA19]”, for which the functional effect result in data set [1] (strong inhibitor and disaggregator in turbidity assay, pellet reduced about 50% at 30 min, about 10% at 90 min) is listed as “active”; in data set [2] it was “less active”.

CCAAUCUUCCUUCCAAUCUUCCUU [RNA11]: the functional effect entry in data set [1] (setting [7]) was “active”.

“CGCGCGCGCGCGCGCGTGTGTGTGTGTGTGTGTGTGTGTGCGCGCGCGCGCGCGCG [SL_TG24]”: the functional effect entry in data set [3] (2'-OMe [1-56 (2'-OMe)], complete rescue of viability at 50 and 100 nM, single-stranded DNA, letters built from the parent sequence and the stated change) was “active”.

For the sequence CGCUGGCAUCCACGCUGGCAUCCA [RNA28], in data set [1] (setting [7]), the functional effect result is on record as “active”.

On to CUAGGAUGGAGGUGGGGAAUGGUAC [RNA2'S1], for which, in data set [4] (2'-OMe at every nucleotide [1-25 (2'-OMe)], inhibits and clears optoFUS inclusions, letters built from the parent sequence and the stated change, variant of RNA8 / RNAS1), the functional effect entry was “active”.

On to “CUAGGAUGGAGGUGGGGAAUGGUAC [RNA8 / RNAS1]”, for which the functional effect result in data set [1] (strong inhibitor and disaggregator in turbidity assay, 5 uM FUS, 20 uM RNA, pellet reduced about 60% at 90 min) is recorded as “active”; in data set [2], “less active”; in data set [4] (dose-dependent inhibition and clearance of optoFUS inclusions, 0.5-2.5 uM), “active”.

On to “CUCCGGAUGUGCUGACCCCUGCGAUUUCCCCAAAUGUGGGAAA [RNA32]”, for which the functional effect result in data set [1] (setting [6]) is on record as “active”; in data set [2] (modest disaggregation of 4FL, perhaps residual binding), “less active”.

As for GAAAAUUAAUGUGUGUGUGUGGAAAAUU [RNA1], the functional effect result in data set [1] (setting [7]) is listed as “active”.

As to GACUGAAAAAGGUGGGUUUCUUUU [RNA7], the functional effect result in data set [1] (setting [6]) is on record as “active”.

“GAGAGAGCGCGUGCAGAGACUUGGUGGUGCAUAA [2'OMe Clip_34nt]”: the functional effect result in data set [3] (2'-OMe [1-34 (2'-OMe)], dose-dependent reduction of optoTDP43 assemblies in HEK293 and neurons, 200-1000 nM, letters built from the parent sequence and the stated change, variant of Clip_34nt (unmodified)) was “active”.

Turning to “GAGAGAGCGCGUGCAGAGACUUGGUGGUGCAUAA [Clip_34nt (unmodified)]”, in data set [5], the Kd was 112 nM.

Consider “GAGGUGGCUAUGGAGGUGGCUAUG [RNA22 (RNA15/2)]”, for which, in data set [1] (shortened RNA15 is intermediate inhibitor, no disaggregation activity, variant of RNA15), the functional effect entry is “less active”.

On to “GAGGUGGCUAUGGAGGUGGCUAUGGAGGUGGCUAUGGAGGUGGCUAUG [RNA15]”, for which the functional effect entry in data set [1] (strong inhibitor and disaggregator in turbidity assay, pellet reduced about 40% at 90 min) is listed as “active”; in data set [2], “less active”.

On to GAUGGAUUCCAGGAUGGAUUCCAG [RNA13], for which the functional effect result in data set [1] (setting [7]) is “active”.

GGUGAGCACAGAGGUGAGCACAGA [RNA10]: the functional effect result in data set [1] (setting [7]) is “active”.

Consider GUGGUGGCUAUGGAGGUGGCUAUG [RNA15/2(A-U)], for which the functional effect entry in data set [1] (A-U mutation significantly weakened inhibition vs RNA22, variant of RNA22 (RNA15/2)) was “less active”.

As for UAUUGAUCCGGUUAUUGAUCCGGU [RNA30], the functional effect result in data set [1] (setting [7]) is listed as “active”.

Take “UCAGAGACAUCAUCAGAGACAUCAUCAGAGACAUCAUCAGAGACAUCA [RNA9^2]”: the functional effect result in data set [1] (increased inhibition and gained disaggregation vs RNA9, variant of RNA9) is listed as “active”.

On to UGUAUUUUGAGCUAGUUUGCUGAU [control RNA], for which the functional effect entry in data set [4] (described as non-binding control, no significant effect) is given as “not active”.

Take UGUGUGUGUGUGUGUGUGUGUGUG [UG12]: the functional effect result in data set [3] (50 nM prevents inclusions) is listed as “active”.

Consider UUGUAUUUUGAGCUAGUUUGGUGAU [RNA2], for which, in data set [1] (setting [7]), the functional effect entry is reported as “active”.

The record behind these values is patent US20210169914.
